Several values for one entry are separate records, joined by “and”; a condition that tells them apart may be missing. Equal values may be shown once. Out of some 400,000 compounds screened, about 13,000 (3.2%) were called active. Inconclusive means that the source gave no clear call. Such entries were picked first, then a sample of the others. Calls come from the whole dose curve; as a rule, active = well fitted cell-killing curve with a large enough effect; inconclusive = small, poorly fitted or top-dose-only effect, or effect the other way; inactive = flat fitted curve, though single readings scatter. A potency beside an inconclusive call is a rough fit, not a confirmed value.
Experiment: qHTS assay for MDR1-selective chemotherapeutics: Primary screen using the drug-selected MDR subline cells KB-V1; note: nearly all actives have a fitted effect of over 60% in size
Settings: KB-V1 MDR cells viability, CellTiter-Glo, 72 h; activity change, negative = cytotoxicity: at 46.1 µM (top of the series)
Method in brief: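 Drug-selected KB-V1 cells, grown in DMEM lacking phenol red with 10% FBS, receive compound titrations; after three days at 37 degrees C, surviving cell ATP is quantified by CellTiter-Glo luminescence and responses normalized and curve-fitted.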
% is set by controls: 0 for no effect and ±100 for the full control effect; potency is the fitted concentration of half-maximal effect.

Q: Which Potency does the source give for COc1cccc(-c2nc3ccc(C(=O)N4CCCC(O)C4)cc3o2)c1 (stereo unspecified) here?
A: inconclusive: 14.6 µM [cytotoxic, partial curve]

Q: For O=C(OCn1ncc(Cl)c(Cl)c1=O)c1ccccc1Cl, which Potency is on record?
A: inconclusive: 25.9 µM [cytotoxic, single point]

Q: For Cc1ccc(CNC(=O)c2ccc(N3CCC4(CC3)CC(c3ccccc3)=NO4)c(NC(=O)c3cccc(C)c3)c2)cc1, which Potency is on record?
A: inconclusive: 20.6 µM [rising, single point]

Q: Which Potency does the source give for CCc1ccc(NC(=O)c2cc(-c3ccc(F)cc3)on2)cc1 here?
A: inconclusive: 29.1 µM [rising, single point]

Q: Which Potency does the source give for CCOC(=O)N1CCC(NC(=O)c2ccc3c(c2)N(Cc2cc(C)ccc2C)C(=O)c2ccccc2S3=O)CC1 (stereo unspecified) here?
A: inconclusive: 7.31 µM [cytotoxic, partial curve, poor fit]

Q: Which Potency does the source give for COc1cc(-c2cc(NC=O)c3ncc(-c4ccc(F)cc4)n3c2)cc(OC)c1OC here?
A: inconclusive: 20.6 µM [cytotoxic, partial curve, poor fit]

Q: With Cn1ncc(Cl)c1C(=O)N1CCN(C23CC4CC(CC(C4)C2)C3)CC1 as the compound, how does the Potency read?
A: inconclusive: 10.3 µM [cytotoxic, partial curve]

Q: With Cc1cccc(C(=O)NNC(=O)C2CCCCC2)c1O as the compound, how does the Potency read?
A: inconclusive: 16.4 µM [cytotoxic, single point]

Q: Which Potency does the source give for Cc1noc(C)c1CSCC(=O)N(C)CC(=O)Nc1ccc(Cl)c(Cl)c1 here?
A: active: 5.8 µM

Q: For Oc1ccccc1C1=NN(c2ccccc2)C(c2ccccc2)C1 (stereo unspecified), which Potency is on record?
A: inconclusive: 29.1 µM [cytotoxic, single point]

Q: With CCCn1c(SCC(=O)Nc2cccc(S(=O)(=O)NC3=NCCCCC3)c2)nc2ccccc2c1=O as the compound, how does the Potency read?
A: inconclusive: 20.6 µM [cytotoxic, partial curve, poor fit]

Q: For S=C1NCCc2ccc(Cl)cc2C1c1ccccc1Cl (stereo unspecified), which “activity change, negative = cytotoxicity” value is on record?
A: inactive: -3.19%

Q: Which “activity change, negative = cytotoxicity” value does the source give for CCCCNC(=S)NNC(=O)c1csc(C)c1 here?
A: inactive: -5.21%

Q: For CCOCCn1ccc2c(OCC(=O)Nc3cc(OC)ccc3OC)cccc2c1=O, which Potency is on record?
A: active: 16.4 µM

Q: With COc1cc(C(=O)OCC(=O)N2CCCCCC2)c([N+](=O)[O-])cc1OC as the compound, how does the Potency read?
A: inconclusive: 29.1 µM [cytotoxic, single point]

Q: For Cc1ccc(C)c(CSC2=NCCN2C(=O)Cc2ccc([N+](=O)[O-])cc2)c1, which Potency is on record?
A: inconclusive: 20.6 µM [cytotoxic, partial curve, poor fit]

Q: With O=C(Nc1ccc2c(c1)OCO2)C1CC1(Cl)Cl (stereo unspecified) as the compound, how does the Potency read?
A: inconclusive: 29.1 µM [rising, single point]

Q: For CCOC(=O)C1(Cc2ccccc2C)CCCN(C(=O)c2cc(C3CC3)[nH]n2)C1 (stereo unspecified), which Potency is on record?
A: inconclusive: 16.4 µM [cytotoxic, single point]

Q: With Cc1cc(C)c2cc(C(=O)N3CCc4ccccc4C3)[nH]c2c1 as the compound, how does the Potency read?
A: inconclusive: 20.6 µM [cytotoxic, single point]

Q: For Fc1ccc(-c2nc3ccc(Cl)cn3c2Cc2ccccc2C(F)(F)F)cc1, which “activity change, negative = cytotoxicity” value is on record?
A: inactive: -18.4%

Q: Which Potency does the source give for CN(C)S(=O)(=O)c1ccc(N2CCN(S(=O)(=O)c3ccc(F)cc3)CC2)c(Cl)c1 here?
A: active: 5.8 µM

Q: For COc1cccc(CNc2nc(C(F)(F)F)nc3ccccc23)c1, which Potency is on record?
A: inconclusive: 13 µM [cytotoxic, partial curve, poor fit]

Q: For C[C@H](CO)N1C[C@H](C)[C@@H](CN(C)Cc2ccccc2)Oc2c(NC(=O)C3CC3)cccc2C1=O, which Potency is on record?
A: inconclusive: 29.1 µM [cytotoxic, partial curve, poor fit]

Q: With COC(=O)[C@H](CC(C)C)N(Cc1ccccc1)S(=O)(=O)N(Cc1ccccc1)[C@@H](CC(C)C)C(=O)OC as the compound, how does the Potency read?
A: inconclusive: 20.6 µM [cytotoxic, partial curve] and inconclusive: 18.4 µM [cytotoxic, partial curve, poor fit]

Q: For COc1ccccc1OCC(=O)/C=C1/N(C)c2ccccc2C1(C)C, which Potency is on record?
A: inconclusive: 8.2 µM [cytotoxic, partial curve]

Q: For CC1CCN(C(=O)C2CCN(S(=O)(=O)c3cccc4nonc34)CC2)CC1, which Potency is on record?
A: inconclusive: 18.4 µM [cytotoxic, single point]

Q: Which Potency does the source give for CC(Oc1ccccc1)C(=O)N1CCCc2ccccc21 (stereo unspecified) here?
A: inconclusive: 23.1 µM [cytotoxic, single point]

Q: For O=C(O)/C=C/c1ccccc1Oc1ccc(Cl)cc1Cl, which “activity change, negative = cytotoxicity” value is on record?
A: inactive: -5.21%

Q: Which Potency does the source give for COc1cc(OC)cc(C(C(=O)NCc2ccccc2)N(Cc2ccco2)C(=O)c2ccno2)c1 (stereo unspecified) here?
A: inconclusive: 4.11 µM [cytotoxic, full curve]

Q: For CCCCCCC(C)n1cc(C(C)=O)c(=O)[nH]c1=O (stereo unspecified), which Potency is on record?
A: inconclusive: 18.4 µM [cytotoxic, single point]

Q: With Cn1c2ccccc2c(=O)c2c(=O)n(-c3ccccc3)c(C3CCCCC3)nc21 as the compound, how does the Potency read?
A: inconclusive: 9.2 µM [cytotoxic, partial curve]

Q: Which Potency does the source give for COc1ccc(C(=O)NC(=S)Nc2ccc(N3CCCC3)cc2)cc1OC here?
A: inconclusive: 2.59 µM [cytotoxic, full curve]

Q: For O=C(O)c1ccc(S(=O)(=O)N2CCSCC2)cc1, which “activity change, negative = cytotoxicity” value is on record?
A: inactive: -2.31%

Q: With Cc1ccc2cc(C)c(Sc3nnnn3-c3ccccc3)nc2c1 as the compound, how does the activity change, negative = cytotoxicity read?
A: inconclusive: -94.6%

Q: Which “activity change, negative = cytotoxicity” value does the source give for Cc1ccnc(N=Cc2nc(-c3ccccc3Br)oc2O)c1 here?
A: inactive: 21.3%

Q: With CCOc1ccc(-c2cn3c(n2)sc2cc(C(=O)NCCc4ccc(OC)c(OC)c4)ccc23)cc1 as the compound, how does the “activity change, negative = cytotoxicity” value read?
A: inactive: 1.88%

Q: Which Potency does the source give for CC1=C(C(=O)N2CCCCCC2)CC(CC(=O)NCCc2ccccn2)C(=O)N1Cc1ccc(C(C)(C)C)cc1 (stereo unspecified) here?
A: inconclusive: 13 µM [cytotoxic, partial curve, poor fit]

Q: Which “activity change, negative = cytotoxicity” value does the source give for CCC1CCCCN1CCCNC(=O)c1cc2c(=O)n(CC)c3ccccc3c2s1 (stereo unspecified) here?
A: inactive: 12.2%

Q: For Cc1cc(C)cc(-n2c(C)cc(C(=O)CSc3nnnn3C)c2C)c1, which Potency is on record?
A: inconclusive: 29.1 µM [cytotoxic, single point]

Q: For COc1cccc(CN2CCN(S(=O)(=O)c3ccc(Br)cc3)CC2)c1, which Potency is on record?
A: inconclusive: 16.4 µM [cytotoxic, partial curve]

Q: Which Potency does the source give for COC(=O)c1cc(=O)n(Cc2cccs2)c(=NCc2cccs2)s1 here?
A: inconclusive: 25.9 µM [cytotoxic, single point]
